Experimental data published in patent publication US20160208004A1.
These are yes or no findings as the source states them, for the method shown. Some binding calls cover weakened binding; strength is not graded here.

The chains behind the UniProt entries cited, without tags or fusion partners. Residues count along the entry.
UniProt Q96F46, residues 33-866: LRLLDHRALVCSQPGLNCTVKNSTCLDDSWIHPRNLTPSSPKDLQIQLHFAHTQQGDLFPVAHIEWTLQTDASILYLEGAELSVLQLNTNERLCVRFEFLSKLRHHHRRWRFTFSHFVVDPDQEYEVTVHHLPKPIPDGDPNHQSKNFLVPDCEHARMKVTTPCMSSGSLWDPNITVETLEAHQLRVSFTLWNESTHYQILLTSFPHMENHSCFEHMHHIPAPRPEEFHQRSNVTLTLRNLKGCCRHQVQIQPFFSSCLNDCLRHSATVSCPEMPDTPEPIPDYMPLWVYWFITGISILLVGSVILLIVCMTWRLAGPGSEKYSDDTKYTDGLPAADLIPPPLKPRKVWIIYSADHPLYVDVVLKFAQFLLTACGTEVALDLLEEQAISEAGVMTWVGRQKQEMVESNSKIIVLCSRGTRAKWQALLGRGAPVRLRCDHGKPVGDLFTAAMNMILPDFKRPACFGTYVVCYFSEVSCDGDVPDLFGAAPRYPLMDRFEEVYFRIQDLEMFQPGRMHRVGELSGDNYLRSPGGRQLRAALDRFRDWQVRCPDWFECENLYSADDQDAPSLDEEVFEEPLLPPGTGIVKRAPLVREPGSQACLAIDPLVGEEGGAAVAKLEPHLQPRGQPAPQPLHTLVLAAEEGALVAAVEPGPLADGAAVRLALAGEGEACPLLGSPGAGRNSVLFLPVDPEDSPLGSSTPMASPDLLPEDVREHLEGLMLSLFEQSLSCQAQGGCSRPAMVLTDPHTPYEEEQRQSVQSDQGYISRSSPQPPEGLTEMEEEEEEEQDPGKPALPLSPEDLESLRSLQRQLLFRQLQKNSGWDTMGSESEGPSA

Biological target: human IL-17RA (human) (UniProt Q96F46)
Assay: description of the panel of Table 34; binding assay not given at this place

| binding | Binder |
| --- | --- |
| binds | 2.67.1 (antibody, V domains shown) VH: QVQLVQSGAEVKKPGASVKVSCKASGYTLTRYGISWVRQAPGQGLEWMGWISAYNGNTNYAQKLQGRVTMTTDTSTSTAYMELRSLRSDDTAVYYCARRDYDILTGYYNGFDPWGQGTLVTVSS VL: DIQMTQSPSSLSASVGDRVTITCRASQGIRNDLGWYQQKPGKAPKRLIYAASSLQSGVPSRFSGSGSGTEFTLTISSLQPEDFATYYCLQHKSYPLTFGGGTKVEIK |
| binds | 2.98.1 (antibody, V domains shown) VH: QVQLVQSGAEVKKPGASVKVSCKASGYTLTRYGISWVRQAPGQGLEWMGWISAYNGNTNYAQKLQGRVTMTTDTSTSTAYMELRSLRSDDTAVYYCARRDYDILTGYYNGFDPWGQGTLVTVSS VL: DIQMTQSPSSLSASVGDRVTITCRASQGIRNDLGWYQQKPGKAPKRLIYAASSLQSGVPSRFSGSGSGTEFTLTISSLQPEDFATYYCLQHKSYPLTFGGGTKVEIK |
